Assay [1] concerns the target Vpu-V5-APEX2 (HIV-1 viral protein U fused to a V5-APEX2 tag) (HIV-1) (UniProt P05923). Description: affinity purification with mass spectrometry; HeLa cells transfected with Vpu-APEX2 or APEX2-NES, 48 h; Pierce IP lysis buffer; anti-V5 magnetic beads 2 h at 4 C; washes 50 mM Tris-HCl pH 7.5, 150 mM NaCl, 0.05% NP-40; gel, trypsin, mass spectrometry; hits Log2FC > 2, score > 3.

Protein sequences, listed by entry. Tags and fused reporters are not part of them. Residues count along the entry.
UniProt P05923: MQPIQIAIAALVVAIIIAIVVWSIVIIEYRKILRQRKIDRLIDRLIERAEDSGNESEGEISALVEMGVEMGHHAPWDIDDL
UniProt Q10589, residues 1-161: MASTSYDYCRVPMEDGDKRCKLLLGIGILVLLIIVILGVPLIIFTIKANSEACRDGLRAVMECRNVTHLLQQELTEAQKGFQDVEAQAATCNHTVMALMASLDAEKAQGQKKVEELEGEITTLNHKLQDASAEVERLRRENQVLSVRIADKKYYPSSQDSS
UniProt P98175: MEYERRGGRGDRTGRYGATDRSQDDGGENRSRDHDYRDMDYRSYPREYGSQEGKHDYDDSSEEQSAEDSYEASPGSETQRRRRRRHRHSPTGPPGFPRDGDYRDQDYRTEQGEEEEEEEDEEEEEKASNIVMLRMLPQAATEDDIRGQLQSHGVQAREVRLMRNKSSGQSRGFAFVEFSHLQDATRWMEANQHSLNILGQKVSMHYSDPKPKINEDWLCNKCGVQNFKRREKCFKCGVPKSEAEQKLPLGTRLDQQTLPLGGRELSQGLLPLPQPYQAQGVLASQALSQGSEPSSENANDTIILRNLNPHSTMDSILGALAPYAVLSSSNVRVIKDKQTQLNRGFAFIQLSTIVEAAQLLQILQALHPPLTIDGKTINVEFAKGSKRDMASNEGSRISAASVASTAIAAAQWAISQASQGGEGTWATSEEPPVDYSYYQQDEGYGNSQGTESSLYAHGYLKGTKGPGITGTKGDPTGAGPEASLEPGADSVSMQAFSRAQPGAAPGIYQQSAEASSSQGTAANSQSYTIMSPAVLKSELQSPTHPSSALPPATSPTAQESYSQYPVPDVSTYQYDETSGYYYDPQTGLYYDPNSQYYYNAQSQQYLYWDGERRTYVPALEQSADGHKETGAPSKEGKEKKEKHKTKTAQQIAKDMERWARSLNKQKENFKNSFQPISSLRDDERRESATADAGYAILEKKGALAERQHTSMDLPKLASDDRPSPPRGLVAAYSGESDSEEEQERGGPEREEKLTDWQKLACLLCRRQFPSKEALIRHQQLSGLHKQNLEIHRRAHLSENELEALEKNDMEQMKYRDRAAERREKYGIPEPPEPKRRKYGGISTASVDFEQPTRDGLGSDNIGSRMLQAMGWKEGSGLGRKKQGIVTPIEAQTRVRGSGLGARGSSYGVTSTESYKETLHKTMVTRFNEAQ
UniProt Q9Y6D5: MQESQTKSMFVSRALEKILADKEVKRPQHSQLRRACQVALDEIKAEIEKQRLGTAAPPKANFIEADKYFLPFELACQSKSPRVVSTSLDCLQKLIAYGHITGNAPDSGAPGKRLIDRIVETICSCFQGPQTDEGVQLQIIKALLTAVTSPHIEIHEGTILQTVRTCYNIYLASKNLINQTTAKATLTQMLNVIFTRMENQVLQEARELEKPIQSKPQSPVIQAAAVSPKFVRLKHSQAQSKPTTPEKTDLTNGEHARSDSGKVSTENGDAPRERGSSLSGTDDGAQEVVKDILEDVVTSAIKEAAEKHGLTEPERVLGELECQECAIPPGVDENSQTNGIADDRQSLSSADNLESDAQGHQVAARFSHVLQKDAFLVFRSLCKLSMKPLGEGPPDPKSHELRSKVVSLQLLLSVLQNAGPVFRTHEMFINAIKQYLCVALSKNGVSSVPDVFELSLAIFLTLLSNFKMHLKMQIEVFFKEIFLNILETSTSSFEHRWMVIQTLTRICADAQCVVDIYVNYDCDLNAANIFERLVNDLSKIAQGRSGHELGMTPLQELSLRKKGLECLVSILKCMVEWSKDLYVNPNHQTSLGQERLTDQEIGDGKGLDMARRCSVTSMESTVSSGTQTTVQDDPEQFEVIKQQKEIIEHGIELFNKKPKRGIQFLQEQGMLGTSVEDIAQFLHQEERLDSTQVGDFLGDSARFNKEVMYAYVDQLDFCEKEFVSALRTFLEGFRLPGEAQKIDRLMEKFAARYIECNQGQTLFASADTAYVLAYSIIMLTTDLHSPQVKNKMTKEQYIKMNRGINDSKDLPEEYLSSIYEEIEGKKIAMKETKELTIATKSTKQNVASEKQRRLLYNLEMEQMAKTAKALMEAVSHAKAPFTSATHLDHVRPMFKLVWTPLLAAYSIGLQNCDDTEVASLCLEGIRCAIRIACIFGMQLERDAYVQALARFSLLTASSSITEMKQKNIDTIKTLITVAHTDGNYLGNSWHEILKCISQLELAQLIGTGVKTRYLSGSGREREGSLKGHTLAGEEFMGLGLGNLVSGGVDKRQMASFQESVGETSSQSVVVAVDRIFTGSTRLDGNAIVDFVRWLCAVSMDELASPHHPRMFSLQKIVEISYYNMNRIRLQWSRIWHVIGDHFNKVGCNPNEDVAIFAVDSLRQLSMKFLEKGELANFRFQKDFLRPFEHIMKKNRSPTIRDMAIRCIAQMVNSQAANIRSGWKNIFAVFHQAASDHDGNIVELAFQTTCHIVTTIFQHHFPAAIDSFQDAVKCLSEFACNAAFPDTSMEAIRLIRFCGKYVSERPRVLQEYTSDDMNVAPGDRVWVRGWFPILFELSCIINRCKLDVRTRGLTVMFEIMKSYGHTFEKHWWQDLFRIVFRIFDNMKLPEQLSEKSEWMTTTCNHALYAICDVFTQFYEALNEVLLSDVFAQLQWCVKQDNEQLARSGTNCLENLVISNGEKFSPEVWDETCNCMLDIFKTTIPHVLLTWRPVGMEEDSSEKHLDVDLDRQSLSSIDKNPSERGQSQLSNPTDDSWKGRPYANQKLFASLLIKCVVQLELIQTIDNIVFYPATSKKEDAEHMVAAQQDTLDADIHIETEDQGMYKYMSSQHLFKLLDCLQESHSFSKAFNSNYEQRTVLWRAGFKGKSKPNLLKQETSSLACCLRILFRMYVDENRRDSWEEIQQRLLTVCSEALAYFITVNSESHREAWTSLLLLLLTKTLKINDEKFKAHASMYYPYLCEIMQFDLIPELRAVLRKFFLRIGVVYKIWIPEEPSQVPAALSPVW
UniProt Q9Y297: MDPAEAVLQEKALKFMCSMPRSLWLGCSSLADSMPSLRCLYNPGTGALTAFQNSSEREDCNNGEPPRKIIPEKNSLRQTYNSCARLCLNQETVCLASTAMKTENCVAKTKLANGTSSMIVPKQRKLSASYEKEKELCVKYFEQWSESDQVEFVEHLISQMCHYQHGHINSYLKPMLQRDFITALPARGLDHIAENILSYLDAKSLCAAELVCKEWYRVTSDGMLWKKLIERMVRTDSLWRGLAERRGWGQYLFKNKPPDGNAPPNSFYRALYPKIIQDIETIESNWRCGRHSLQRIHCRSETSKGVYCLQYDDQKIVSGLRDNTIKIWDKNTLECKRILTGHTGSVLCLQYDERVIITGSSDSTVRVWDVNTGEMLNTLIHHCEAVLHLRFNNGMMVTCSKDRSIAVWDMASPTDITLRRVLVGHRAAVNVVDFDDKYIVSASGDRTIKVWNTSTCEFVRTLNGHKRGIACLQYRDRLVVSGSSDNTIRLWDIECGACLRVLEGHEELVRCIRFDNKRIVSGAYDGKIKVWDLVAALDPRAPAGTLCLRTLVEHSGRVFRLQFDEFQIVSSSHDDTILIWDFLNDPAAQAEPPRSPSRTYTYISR
UniProt O14981: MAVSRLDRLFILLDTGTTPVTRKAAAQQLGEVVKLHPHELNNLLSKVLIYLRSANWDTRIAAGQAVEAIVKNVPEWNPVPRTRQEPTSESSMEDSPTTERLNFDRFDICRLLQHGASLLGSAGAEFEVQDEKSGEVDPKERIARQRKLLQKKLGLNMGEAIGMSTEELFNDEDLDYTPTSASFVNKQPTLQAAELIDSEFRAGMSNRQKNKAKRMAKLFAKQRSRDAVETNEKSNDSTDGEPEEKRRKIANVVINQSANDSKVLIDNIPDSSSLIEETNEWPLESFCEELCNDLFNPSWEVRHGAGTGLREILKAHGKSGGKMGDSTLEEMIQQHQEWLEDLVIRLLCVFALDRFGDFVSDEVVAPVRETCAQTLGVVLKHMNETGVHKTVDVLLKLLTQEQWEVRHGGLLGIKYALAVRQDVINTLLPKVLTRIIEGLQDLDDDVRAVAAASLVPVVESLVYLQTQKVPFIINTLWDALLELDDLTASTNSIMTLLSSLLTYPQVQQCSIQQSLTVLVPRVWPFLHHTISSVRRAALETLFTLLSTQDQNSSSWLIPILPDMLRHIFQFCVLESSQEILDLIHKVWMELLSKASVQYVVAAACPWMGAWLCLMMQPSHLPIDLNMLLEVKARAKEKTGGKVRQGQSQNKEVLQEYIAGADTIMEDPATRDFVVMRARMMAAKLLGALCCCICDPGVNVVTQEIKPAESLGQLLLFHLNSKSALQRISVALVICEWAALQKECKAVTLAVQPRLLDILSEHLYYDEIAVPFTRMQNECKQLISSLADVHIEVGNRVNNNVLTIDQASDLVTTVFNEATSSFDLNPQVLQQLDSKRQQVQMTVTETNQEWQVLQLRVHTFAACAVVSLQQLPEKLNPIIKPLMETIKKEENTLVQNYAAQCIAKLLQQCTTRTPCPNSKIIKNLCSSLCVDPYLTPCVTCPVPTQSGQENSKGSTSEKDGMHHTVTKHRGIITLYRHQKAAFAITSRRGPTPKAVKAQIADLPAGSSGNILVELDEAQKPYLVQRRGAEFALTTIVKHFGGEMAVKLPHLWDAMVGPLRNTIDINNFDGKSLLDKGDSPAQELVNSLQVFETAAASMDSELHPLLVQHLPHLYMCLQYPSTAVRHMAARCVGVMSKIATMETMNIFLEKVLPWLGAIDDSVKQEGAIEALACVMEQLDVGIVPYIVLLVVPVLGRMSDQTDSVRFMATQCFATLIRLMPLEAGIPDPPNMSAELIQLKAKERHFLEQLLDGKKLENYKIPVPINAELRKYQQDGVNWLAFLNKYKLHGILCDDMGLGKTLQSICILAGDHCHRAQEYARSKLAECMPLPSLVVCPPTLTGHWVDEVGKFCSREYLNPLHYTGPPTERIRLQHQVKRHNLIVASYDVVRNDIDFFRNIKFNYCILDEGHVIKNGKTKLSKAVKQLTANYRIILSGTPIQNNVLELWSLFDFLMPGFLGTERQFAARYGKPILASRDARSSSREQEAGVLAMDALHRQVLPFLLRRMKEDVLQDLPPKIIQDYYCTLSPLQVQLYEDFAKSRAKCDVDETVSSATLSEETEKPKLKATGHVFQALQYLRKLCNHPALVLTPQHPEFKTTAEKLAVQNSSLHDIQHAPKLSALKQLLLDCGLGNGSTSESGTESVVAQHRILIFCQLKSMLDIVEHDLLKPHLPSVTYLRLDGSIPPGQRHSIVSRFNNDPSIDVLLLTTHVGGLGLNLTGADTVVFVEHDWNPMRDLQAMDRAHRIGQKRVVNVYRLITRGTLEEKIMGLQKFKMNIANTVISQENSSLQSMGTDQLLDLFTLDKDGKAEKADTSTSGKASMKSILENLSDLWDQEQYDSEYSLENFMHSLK
UniProt Q9UKB1: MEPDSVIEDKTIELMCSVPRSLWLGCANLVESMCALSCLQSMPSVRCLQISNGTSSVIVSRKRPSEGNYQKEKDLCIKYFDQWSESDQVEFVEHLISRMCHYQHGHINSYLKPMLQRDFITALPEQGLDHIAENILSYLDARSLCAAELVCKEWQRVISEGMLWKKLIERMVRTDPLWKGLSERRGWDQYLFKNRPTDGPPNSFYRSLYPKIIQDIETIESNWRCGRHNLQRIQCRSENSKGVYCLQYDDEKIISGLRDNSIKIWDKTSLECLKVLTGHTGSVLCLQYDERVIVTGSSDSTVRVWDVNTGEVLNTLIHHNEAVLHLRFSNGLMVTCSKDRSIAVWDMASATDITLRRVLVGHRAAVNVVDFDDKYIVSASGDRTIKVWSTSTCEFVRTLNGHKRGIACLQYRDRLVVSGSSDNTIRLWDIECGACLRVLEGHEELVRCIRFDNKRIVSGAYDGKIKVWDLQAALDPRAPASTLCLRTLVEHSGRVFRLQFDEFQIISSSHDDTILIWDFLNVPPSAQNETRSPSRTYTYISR

Assay [2] has the same target. Kind of assay: proximity labelling; APEX2 labelling in HeLa cells transfected with Vpu-APEX2 (control APEX2-NES); biotinyl tyramide 30 min, 1 mM H2O2 1 min; streptavidin beads, on-bead digestion, label-free quantitative mass spectrometry; hits Log2FC > 2, P < 0.05.

These are yes or no findings as the source states them, for the method shown. Binding seen in cells or lysates may run through a third protein. Here binding means that the protein was enriched with, or labelled near, the bait; the list need not be complete.

As to “BST-2, endogenous (from UniProt Q10589 1-161)”, the binding result in assay [1] was “binds”. Turning to “RNA-binding motif protein 10 (RBM10), endogenous (from UniProt P98175 1-930)”, the binding entry in assay [2] and in assay [1] was “binds” throughout.

Consider “ARFGEF2, endogenous (from UniProt Q9Y6D5 1-1785)”, for which the binding entry in assay [2] and in assay [1] was “binds” throughout. As for “BTRC, endogenous (from UniProt Q9Y297 1-605)”, the binding result in assay [2] and in assay [1] was “binds” throughout. On to “BTAF1, endogenous (from UniProt O14981 1-1849)”, for which the binding result in assay [2] and in assay [1] was “binds” throughout. Consider “FBXW11, endogenous (from UniProt Q9UKB1 1-542)”, for which the binding entry in assay [2] and in assay [1] was “binds” in each case.

Values taken from publication PMC12363165.
